According to publication PMC4916389:
Read-outs that look alike come from different tables or passages of the source. Results are given in words; binding and its absence hold for the method and conditions named. In cells and extracts the contact can be indirect. A yes stands for co-enrichment or nearness to the bait. Other partners may have been found. For some assays here: A no says only that the protein was not detected with the bait.

Amino acid sequences for entries named in this document (tags omitted). A change or cut given only in a name is not applied to a line headed by its entry.
UniProt F7W245: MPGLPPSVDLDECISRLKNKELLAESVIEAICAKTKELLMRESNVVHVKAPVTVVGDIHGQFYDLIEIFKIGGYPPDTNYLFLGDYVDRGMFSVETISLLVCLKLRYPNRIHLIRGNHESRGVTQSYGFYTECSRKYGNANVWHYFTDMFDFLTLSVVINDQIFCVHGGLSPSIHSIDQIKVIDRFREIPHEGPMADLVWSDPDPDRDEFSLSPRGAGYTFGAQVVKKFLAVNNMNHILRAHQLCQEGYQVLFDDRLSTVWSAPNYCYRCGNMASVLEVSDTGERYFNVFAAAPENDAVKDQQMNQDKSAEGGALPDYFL
UniProt F7VP17: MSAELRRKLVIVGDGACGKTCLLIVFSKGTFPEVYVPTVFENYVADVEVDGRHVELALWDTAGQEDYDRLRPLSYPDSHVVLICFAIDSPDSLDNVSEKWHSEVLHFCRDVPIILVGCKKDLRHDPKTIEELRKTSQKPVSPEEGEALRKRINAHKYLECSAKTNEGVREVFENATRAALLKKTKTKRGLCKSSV

B1: PRO11 (striatin homolog), endogenous (protein, UniProt Q70M86 1-845)
chain: MGTNGVHVSFGAGHEMGGVMGNGSGQPPATEYTLQGVMRFLQTEWHRHERDRNAWEIEKQEMRARIANLEGQARRADATQKALKRYVSILEKKVKEQSAALKSGGKEKGVEDEAEAEDNKTKLDRSALIQEKLRPNTKLSGAPNEAENVEIGPPDDESARNELKTFLDQCQAEFTYLMVTPANPQPPRESPPLPILDDFREGEALNQQLEQSYQRSQQSQIRDLLAQQAAAANATNVAAVQSQQQQPQQQQHAVGPRPQTNQPPKGYGELAQGAPMERSSRGQQLHDILKSGETPDWSASMQSQPVEEPTSALSKAPPMVRGDGREPAVPKSASTTDAWDFNESNFQDPNAMPQPTPQQSFSSRPDTDAFPSAENLTKSPNRGALSHRRKSSSGMARRRSAEHELSLGSLQQKAEGTMFKFRFGLRGHLDVVRTVIFSGGGSPGEPEICTAGDDGLVKRFHIPDRHIGQRNADGDLDVAADFTHRGHSGAVLSLASWSPSPNFSTGGRAQGDGWIFSGGQDATIRVWERGRVDPKATLDGHTDAVWALCVLPTNLGAIFGQTNSHGPPDRILLVSGAADGTVKVWAVSAPPQLTSPQPGPGRRGPGGRVRGNSMSSGSAFPSSPQPTTASNSPFHHTLVHTIKRANSEASPTCITALSPNGETFAVSYADAAIIVYDTRSGEEIGTMASLDTYDGTNNTAVNAVVATTVGLDQTQGPGGEDESGGGPTGGGRSMAGSGVEGTIISGHEDRYIRFFDANSGQCTYNMLAHPGSVSSLSLSPDGRELVSAGHDMSLRFWSLETRSCTQEMTCHRSMRGEGVCAVVWSQDGRWVVSSGGDGMVKVYAR

Legend:
[1] = target: NTAP-PP2Ac1 (catalytic subunit 1 of protein phosphatase 2A with an N-terminal TAP tag) (Sordaria macrospora) (UniProt F7W245); assay: affinity purification with mass spectrometry; tandem affinity purification (TAP) with NTAP-PP2Ac1 as bait from protein extract of the S. macrospora Δpp2Ac1::ntap-pp2Ac1 strain; TEV cleavage with AcTEV; tryptic digestion and MudPIT MS; four replicates; unspecific background and ribosomal proteins subtracted
[2] = target: NTAP-PP2Ac1 (catalytic subunit 1 of protein phosphatase 2A with an N-terminal TAP tag) (Sordaria macrospora) (UniProt F7W245); assay: as above; remark: listed apart in the source

Molecule | binding [1] | binding [2]
RHO1, CWI pathway component (from UniProt F7VP17) | binds | 
B1 |  | no binding
